Reference: PubChem BioAssay AID1259254 (NCATS, 2017)

- Purpose: 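Gene knock-downs that lead to re-replication, shown by excess G2 DNA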 (primary screen)
- Cells: human HCT116 colorectal cancer cells
- Knock-down reagent: single siRNA against human genes
- Time to read-out: 3 days
- Detection: 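Nuclei stained with Hoechst and imaged; cell-cycle phase assigned by DNA content; G2 share scaled per plate, non-targeting siRNA 0%, GMNN siRNA 100%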
- Reading the numbers: G2 robust z-score and G2 cells, % of GMNN control: higher = more G2 cells, more excess DNA replication
- Call rule: 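Active siRNAs have a G2 robust z of 5 or more median absolute deviations over the median, which in these data means about 38% or higher of GMNN control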
The whole screen tested about 59,000 reagents; below is a part drawn at random. Of all reagents, about 1,550 (2.6%) got an active call. 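G2 share is only a proxy for re-replication; each gene was hit by three separate siRNAs, and active genes were retested.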 Reagents against one gene are numbered here. Further read-outs or replicates are left out here. The record does not give: the amount of reagent.

{"gene knocked down":"VCY (variable charge Y-linked)","reagent no.":1,"G2 robust z-score":0.267,"G2 cells, % of GMNN control":4.85,"Outcome":"inactive"}
{"gene knocked down":"VCY (variable charge Y-linked)","reagent no.":2,"G2 robust z-score":-0.622,"G2 cells, % of GMNN control":-1.41,"Outcome":"inactive"}
{"gene knocked down":"VCY (variable charge Y-linked)","reagent no.":3,"G2 robust z-score":2.08,"G2 cells, % of GMNN control":17.6,"Outcome":"inactive"}
{"gene knocked down":"NGF (nerve growth factor)","reagent no.":1,"G2 robust z-score":-0.686,"G2 cells, % of GMNN control":-1.86,"Outcome":"inactive"}
{"gene knocked down":"NGF (nerve growth factor)","reagent no.":2,"G2 robust z-score":-0.948,"G2 cells, % of GMNN control":-3.7,"Outcome":"inactive"}
{"gene knocked down":"NGF (nerve growth factor)","reagent no.":3,"G2 robust z-score":-0.463,"G2 cells, % of GMNN control":-0.288,"Outcome":"inactive"}
{"gene knocked down":"ABCA17P (ATP binding cassette subfamily A member 17, pseudogene)","reagent no.":1,"G2 robust z-score":0.976,"G2 cells, % of GMNN control":9.83,"Outcome":"inactive"}
{"gene knocked down":"ABCA17P (ATP binding cassette subfamily A member 17, pseudogene)","reagent no.":2,"G2 robust z-score":0.511,"G2 cells, % of GMNN control":6.56,"Outcome":"inactive"}
{"gene knocked down":"ABCA17P (ATP binding cassette subfamily A member 17, pseudogene)","reagent no.":3,"G2 robust z-score":-0.376,"G2 cells, % of GMNN control":0.324,"Outcome":"inactive"}
{"gene knocked down":"ARL13B (ARF like GTPase 13B)","reagent no.":1,"G2 robust z-score":-0.825,"G2 cells, % of GMNN control":-2.84,"Outcome":"inactive"}
{"gene knocked down":"ARL13B (ARF like GTPase 13B)","reagent no.":2,"G2 robust z-score":0.664,"G2 cells, % of GMNN control":7.64,"Outcome":"inactive"}
{"gene knocked down":"ARL13B (ARF like GTPase 13B)","reagent no.":3,"G2 robust z-score":-0.253,"G2 cells, % of GMNN control":1.19,"Outcome":"inactive"}
{"gene knocked down":"SHARPIN (SHANK associated RH domain interactor)","reagent no.":1,"G2 robust z-score":-0.922,"G2 cells, % of GMNN control":-3.52,"Outcome":"inactive"}
{"gene knocked down":"SHARPIN (SHANK associated RH domain interactor)","reagent no.":2,"G2 robust z-score":1.25,"G2 cells, % of GMNN control":11.7,"Outcome":"inactive"}
{"gene knocked down":"SHARPIN (SHANK associated RH domain interactor)","reagent no.":3,"G2 robust z-score":-1.04,"G2 cells, % of GMNN control":-4.34,"Outcome":"inactive"}
{"gene knocked down":"MYOZ3 (myozenin 3)","reagent no.":1,"G2 robust z-score":0.118,"G2 cells, % of GMNN control":3.8,"Outcome":"inactive"}
{"gene knocked down":"MYOZ3 (myozenin 3)","reagent no.":2,"G2 robust z-score":-0.714,"G2 cells, % of GMNN control":-2.06,"Outcome":"inactive"}
{"gene knocked down":"MYOZ3 (myozenin 3)","reagent no.":3,"G2 robust z-score":-0.591,"G2 cells, % of GMNN control":-1.19,"Outcome":"inactive"}
{"gene knocked down":"PLA2R1 (phospholipase A2 receptor 1)","reagent no.":1,"G2 robust z-score":-0.213,"G2 cells, % of GMNN control":1.47,"Outcome":"inactive"}
{"gene knocked down":"PLA2R1 (phospholipase A2 receptor 1)","reagent no.":2,"G2 robust z-score":-0.832,"G2 cells, % of GMNN control":-2.89,"Outcome":"inactive"}
{"gene knocked down":"PLA2R1 (phospholipase A2 receptor 1)","reagent no.":3,"G2 robust z-score":-0.631,"G2 cells, % of GMNN control":-1.47,"Outcome":"inactive"}
{"gene knocked down":"TIGD5 (tigger transposable element derived 5)","reagent no.":1,"G2 robust z-score":-0.745,"G2 cells, % of GMNN control":-2.28,"Outcome":"inactive"}
{"gene knocked down":"TIGD5 (tigger transposable element derived 5)","reagent no.":2,"G2 robust z-score":0.804,"G2 cells, % of GMNN control":8.62,"Outcome":"inactive"}
{"gene knocked down":"TIGD5 (tigger transposable element derived 5)","reagent no.":3,"G2 robust z-score":-0.809,"G2 cells, % of GMNN control":-2.73,"Outcome":"inactive"}
{"gene knocked down":"UBR3 (ubiquitin protein ligase E3 component n-recognin 3)","reagent no.":1,"G2 robust z-score":-0.252,"G2 cells, % of GMNN control":1.19,"Outcome":"inactive"}
{"gene knocked down":"UBR3 (ubiquitin protein ligase E3 component n-recognin 3)","reagent no.":2,"G2 robust z-score":1.19,"G2 cells, % of GMNN control":11.3,"Outcome":"inactive"}
{"gene knocked down":"UBR3 (ubiquitin protein ligase E3 component n-recognin 3)","reagent no.":3,"G2 robust z-score":2.57,"G2 cells, % of GMNN control":21,"Outcome":"inactive"}
{"gene knocked down":"OR9K2 (olfactory receptor family 9 subfamily K member 2)","reagent no.":1,"G2 robust z-score":1.94,"G2 cells, % of GMNN control":16.6,"Outcome":"inactive"}
{"gene knocked down":"OR9K2 (olfactory receptor family 9 subfamily K member 2)","reagent no.":2,"G2 robust z-score":0.318,"G2 cells, % of GMNN control":5.21,"Outcome":"inactive"}
{"gene knocked down":"OR9K2 (olfactory receptor family 9 subfamily K member 2)","reagent no.":3,"G2 robust z-score":0.0326,"G2 cells, % of GMNN control":3.2,"Outcome":"inactive"}
